The exact form of at least one protein or probe is not confirmed. A weaker result is weaker than the reference pair of the same experiment. Protein sequences can lack the tags named with them. At least one verdict was read from the data and is not stated in words by the source.
Columns and labels:
[1] = molecular target: T1, YTHDF1 YTH domain (human) (UniProt Q9BYJ9); assay: AlphaScreen; conditions: m6A at position 5, REMSA: 20 mM Hepes pH 7.5, 50 mM KCl, BSA, 0.25% glycerol, gel at 4 C, AlphaScreen: 25 mM Hepes pH 7.5, 100 mM NaCl, 0.1% BSA, RT, recombinant protein, residues 365-554, protein details: 6xHis (C-terminal as stated), label: 5'-biotin
T1 sequence (looked up): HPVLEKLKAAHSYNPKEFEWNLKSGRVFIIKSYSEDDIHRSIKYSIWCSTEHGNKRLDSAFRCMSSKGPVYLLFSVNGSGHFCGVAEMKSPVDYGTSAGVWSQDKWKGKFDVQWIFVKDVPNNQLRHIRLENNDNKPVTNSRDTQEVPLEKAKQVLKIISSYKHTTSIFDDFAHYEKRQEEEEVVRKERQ

[2] = molecular target: T1, YTHDF1 YTH domain (human); assay: EMSA; conditions: m6A at position 5, REMSA: 20 mM Hepes pH 7.5, 50 mM KCl, BSA, 0.25% glycerol, gel at 4 C, AlphaScreen: 25 mM Hepes pH 7.5, 100 mM NaCl, 0.1% BSA, RT, recombinant protein, residues 365-554, protein details: 6xHis (C-terminal as stated), label: 5'-IRDye-700

Row | Sequence | binding result ([1]; 50 nM protein, 50 nM RNA, no inhibitor) | binding result ([1]; ebselen 0-100 uM (inhibitor IC50 3.565 uM)) | binding result ([1]; ebsulfur (inhibitor IC50 23.14 uM)) | binding result ([2]; 500 nM protein, 2 nM RNA, no ebselen) | binding result ([2]; ebselen 0.1-10 uM, inhibition from 0.1 uM or 1 uM)
1 | CCGAACUGUC [GAm6ACU AlphaScreen probe] | binds | binds more weakly | binds more weakly |  | 
2 | CCGAACUGUC [GAm6ACU REMSA probe] |  |  |  | binds | binds more weakly
